Reference: patent US7595056B1, “Methods of rejuvenating Leydig cells and enhancing testosterone production in a male subject” (University of Tennessee Research Foundation, priority 2002, dated 2009)

Tested on: testis of Brown Norway rats
Assay: Microscopy and stereology of the testis of aged Brown Norway rats treated 4 weeks with LH, T4 or LH+T4
Format: in vivo, Brown Norway rat
Conditions: 19M Brown Norway rats after 4 weeks subdermal osmotic pump (LH 24 μg/day, T4 5 μg/day), n=8
Text: Male Brown Norway rats aged 3, 6, 12 (n=8 per group; 3M, 6M, and 12M, respectively), and 18 months (M) (n=32; 18M) were purchased from Harlan (Madison, Wis., United States of America). The 18M rats were divided equally into four groups (n=8 per group). Under deep inhalation anesthesia (METOFANE™; Malincroft Veterinary, Inc., Mundelein, Ill., United States of America), the four groups of 18M rats were implanted subdermally with ALZET™ mini-osmotic pumps (model 2ML4; Alza Corporation, Palo Alto, Calif., United States of America), containing saline (control), LH (24 μg/day; National Hormone and Pituitary Program, Los Angeles, Calif., United States of America), thyroxine (T4; 5 μg/day; Sigma, St. Louis, Mo., United States of America), and LH and T4 (LH+T4; two pumps, 24 […] of T4), respectively, for 4 weeks (to 19 months [19M] of age). These doses of LH (Mendis-Handagama et al., (1998) Tissue Cell 30:64-73) and thyroid hormone (Ariyaratne et al., (2000) Biol. Reprod. 63:1115-1123) were used based on previously published studies. Rats were maintained under conditions of controlled temperature (25° C.) and lighting (14 hour/10 hour light/dark cycle) and were housed individually (one rat per cage). The animals were fed with Agway PROLAB™ rat formula (Agway, Syracuse, N.Y., United States of America) and water ad libitum until they were sacrificed. The animal protocol employed (No. 488) meets the guidelines of the National Institutes of Health and was approved by the University of Tennessee Animal Care and Concerns Committee.
Pumps were filled with either saline, LH, or T4, and were primed in saline for 3 hours before implantation so that they would deliver their contents immediately on subdermal implantation into the interscapular region. The LH+T4 rats received two pumps each, one containing LH and one containing T4; the other rats received one pump containing either saline, LH, or T4. After 4 weeks of treatment, rats were sacrificed. In addition, implanted pumps were removed and examined to verify that they had delivered their contents as expected.
One testis of each rat in the 3M, 6M, 12M, and 19M age groups was removed, cleaned of fat, and weighed on a Mettler H54 balance to obtain the fresh testis weight. Using the flotation technique (Mendis-Handagama et al., (1988) Am. J. Anat. 181:12-22; Mori & Christensen, (1980) J. Cell. Biol. 84:340-354; and Mendis-Handagama & Ewing, (1990) J. Microsc. (Oxf) 159:73-82), the specific gravity of the fresh testis was determined as described previously (Mori & Christensen, (1980) J. Cell. Biol. 84:340-354 and Mendis-Handagama & Ewing, (1990) J. Microsc. (Oxford) 159:73-82), and the fresh testis volume was calculated by dividing the fresh testis weight by the specific gravity (in metric units, specific gravity equals density). This measurement is required to express Leydig cell numbers per testis, because numerical density is obtained as a number per unit volume of the testis. The testis was then decapsulated, and the entire testis was incubated for 3 hours in the same medium as described previously (Ariyaratne et al., (2000) Biol. Reprod. 63:1115-1123; Mendis-Handagama et al., (1998) Biol. Reprod. 59:351-357; Mendis-Handagama et al., (1990) J. Androl. 11:548-554; Ariyaratne et al., (2000) Biol. Reprod. 63:493-502; and Ariyaratne & Mendis-Handagama, (2000) Biol. Reprod. 62:158-168) to determine the LH-stimulated testosterone-secretory capacity per testis in vitro. Testosterone levels in the incubation medium were measured by RIA using commercially available kits (COAT-A-COUNT™), and the details of the assay are given above (see Laboratory Example 4). Testosterone-secretory capacity per Leydig cell was calculated by dividing the testosterone-secretory capacity per testis by the number of Leydig cells per testis. […]

N[C@@H](Cc1cc(I)c(Oc2cc(I)c(O)c(I)c2)c(I)c1)C(=O)O [T4, L-3,5,3′,5′-tetraiodothyronine]
Mean Testis volume: 1838 mm^3
Macrophage number per Testis (mean): 7.65 10^6
Volume density of Blood vessels (mean): 2.61%
Volume density of Connective tissue cells (mean): 1 .25%
Volume density of Interstitium (mean): 12.165%
Volume density of Lymphatic space (mean): 5.29%
Volume density of Macrophages (mean): 0.523%
Mean Absolute Volume of Blood vessels (per testis): 47.97 mm^3
Mean Absolute Volume of Connective tissue cells (per testis): 22.96 mm^3
Mean Absolute Volume of Interstitium (per testis): 226.74 mm^3
Mean Absolute Volume of Lymphaticspace (per testis): 97.19 mm^3
Mean Absolute Volume of Macrophages (per testis): 10.58 mm^3
